Laboratory results published in patent publication EP2265599B1, “CRYSTAL FORM OF PHENYLAMINOPYRIMIDINE DERIVATIVE” (Natco Pharma Limited, priority 2008, dated 2009).
At least one structure is not confirmed: it was looked up by name or label, or the drawing left a doubt.

Tested on: 4910 human glioma xenograft cells
Experiment: Glioma radiation study, intracranially implanted 4910 cells
Type: in vivo, Nude mice
Method: Nude mice were intracranially implanted with 4910 human glioma xenograft cells (1x10^6 cells). Ten days after implantation mice were treated with AN019, AN024 or temozolomide with or without radiation (5Gy/week). The experiment was terminated at day 40 post implantation.

SMILES: Cn1nnc2c(C(N)=O)ncn2c1=O [Temozolomide, reference compound]
- intracranial tumours (size, appearance) (with radiation (5Gy/week)): caused a further regression in tumor size
- intracranial tumours (size, appearance) (without radiation): showed reduction in intracranial tumours
